# Measurements from the supplement of paper PMC8728848.
# Some of the results follow.
# B1: MFG-E8 (Homo sapiens), Q08431 (protein)
# chain: MPRPRLLAALCGALLCAPSLLVALDICSKNPCHNGGLCEEISQEVRGDVFPSYTCTCLKGYAGNHCETKCVEPLGLENGNIANSQIAASSVRVTFLGLQHWVPELARLNRAGMVNAWTPSSNDDNPWIQVNLLRRMWVTGVVTQGASRLASHEYLKAFKVAYSLNGHEFDFIHDVNKKHKEFVGNWNKNAVHVNLFETPVEAQYVRLYPTSCHTACTLRFELLGCELNGCANPLGLKNNSIPDKQITASSSYKTWGLHLFSWNPSYARLDKQGNFNAWVAGSYGNDQWLQVDLGSSKEVTGIITQGARNFGSVQFVASYKVAYSNDSANWTEYQDPRTGSSKIFPGNWDNHSHKKNLFETPILARYVRILPVAWHNRIALRLELLGC
# What was measured:
# Test in all cases: glycan array binding signal (z-score within array); higher = stronger binding
# Settings in all cases: glycan notation: IUPAC condensed, linker removed
# Gal6S(b1-4)Glc6S = target: Gal6S(b1-4)Glc6S
# Outline: (§1)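 Columns mapping to the same glycan were averaged after glycan names were converted to IUPAC-condensed notation. The data come from 3228 arrays in the Consortium for Functional Glycomics database, limited to those with an available protein sequence. Binding is reported as a within-array Z-score averaged across arrays of one protein sequence and across linkers.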
# Gal6S(b1-4)GlcNAc = target: Gal6S(b1-4)GlcNAc
# Outline: as §1
# Gal6S(b1-4)GlcNAc6S = target: Gal6S(b1-4)GlcNAc6S
# Outline: as §1
# GalNAc(a1-3)Gal = target: GalNAc(a1-3)Gal
# Outline: as §1
# GalNAc(a1-3)GalNAc = target: GalNAc(a1-3)GalNAc
# Outline: as §1
# [1] = target: GalNAc(a1-3)GalNAc(b1-3)Gal(a1-4)Gal(b1-4)Glc
# Outline: as §1
# [2] = target: GalNAc(a1-3)GalNAc(b1-3)Gal(a1-4)Gal(b1-4)GlcNAc
# Outline: as §1
# GalNAc(b1-3)Gal = target: GalNAc(b1-3)Gal
# Outline: as §1
# [3] = target: GalNAc(b1-3)Gal(a1-4)Gal(b1-4)GlcNAc
# Outline: as §1
# [4] = target: GalNAc(b1-3)Gal(a1-4)Gal(b1-4)GlcNAc(b1-3)Gal(b1-4)Glc
# Outline: as §1
# [5] = target: GalNAc(b1-3)Gal(a1-6)Gal(b1-4)Glc
# Outline: as §1
# GalNAc(b1-3)GalNAc = target: GalNAc(b1-3)GalNAc
# Outline: as §1
# GalNAc(b1-4)Gal(b1-4)Glc = target: GalNAc(b1-4)Gal(b1-4)Glc
# Outline: as §1
# GalNAc(b1-4)GlcNAc = target: GalNAc(b1-4)GlcNAc
# Outline: as §1
# [6] = target: GalNAc(b1-4)GlcNAc(b1-2)Man(a1-3)[GalNAc(b1-4)GlcNAc(b1-2)Man(a1-6)]Man(b1-4)GlcNAc(b1-4)GlcNAc
# Outline: as §1
# GalNAc(b1-6)GalNAc = target: GalNAc(b1-6)GalNAc
# Outline: as §1
# Glc(a1-4)Glc = target: Glc(a1-4)Glc
# Outline: as §1
# [7] = target: Glc(a1-4)Glc(a1-4)Glc(a1-4)Glc
# Outline: as §1
# Glc(a1-6)Glc(a1-6)Glc = target: Glc(a1-6)Glc(a1-6)Glc
# Outline: as §1
# [8] = target: Glc(a1-6)Glc(a1-6)Glc(a1-6)Glc
# Outline: as §1
# Glc(b1-4)Glc = target: Glc(b1-4)Glc
# Outline: as §1
# Glc(b1-6)Glc = target: Glc(b1-6)Glc
# Outline: as §1
# GlcA(b1-3)Gal = target: GlcA(b1-3)Gal
# Outline: as §1
# GlcA(b1-3)GlcNAc = target: GlcA(b1-3)GlcNAc
# Outline: as §1
# GlcA(b1-6)Gal = target: GlcA(b1-6)Gal
# Outline: as §1
# [9] = target: GlcNAc(a1-3)Gal(b1-4)GlcNAc
# Outline: as §1
# [10] = target: GlcNAc(a1-4)Gal(b1-3)GlcNAc
# Outline: as §1
# [11] = target: GlcNAc(a1-4)Gal(b1-4)GalNAc
# Outline: as §1
# [12] = target: GlcNAc(a1-4)Gal(b1-4)GlcNAc
# Outline: as §1
# [13] = target: GlcNAc(a1-4)Gal(b1-4)GlcNAc(b1-3)Gal(b1-4)Glc
# Outline: as §1
# [14] = target: GlcNAc(a1-4)Gal(b1-4)GlcNAc(b1-3)Gal(b1-4)GlcNAc
# Outline: as §1
# [15] = target: GlcNAc(a1-4)Gal(b1-4)GlcNAc(b1-3)Gal(b1-4)GlcNAc(b1-3)Gal(b1-4)GlcNAc
# Outline: as §1
# [16] = target: GlcNAc(a1-4)Gal(b1-4)GlcNAc(b1-3)Gal(b1-4)[Fuc(a1-3)]GlcNAc(b1-3)Gal(b1-4)[Fuc(a1-3)]GlcNAc
# Outline: as §1
# [17] = target: GlcNAc(a1-6)Gal(b1-4)GlcNAc
# Outline: as §1
# [18] = target: GlcNAc(b1-2)Gal(b1-3)GalNAc
# Outline: as §1
# [19] = target: GlcNAc(b1-2)Man(a1-3)[GlcNAc(b1-2)Man(a1-6)]Man(b1-4)GlcNAc(b1-4)GlcNAc
# Outline: as §1
# [20] = target: GlcNAc(b1-2)Man(a1-3)[GlcNAc(b1-2)Man(a1-6)]Man(b1-4)GlcNAc(b1-4)[Fuc(a1-6)]GlcNAc
# Outline: as §1
binder,measurement,setting,value
B1,glycan array binding signal (z-score),Gal6S(b1-4)Glc6S,1.06
same,glycan array binding signal (z-score),Gal6S(b1-4)GlcNAc,-0.293
same,glycan array binding signal (z-score),Gal6S(b1-4)GlcNAc6S,1.07
same,glycan array binding signal (z-score),GalNAc(a1-3)Gal,-0.785
same,glycan array binding signal (z-score),GalNAc(a1-3)GalNAc,-0.801
same,glycan array binding signal (z-score),[1],-0.507
same,glycan array binding signal (z-score),[2],0.265
same,glycan array binding signal (z-score),GalNAc(b1-3)Gal,-0.767
same,glycan array binding signal (z-score),[3],-0.764
same,glycan array binding signal (z-score),[4],-0.322
same,glycan array binding signal (z-score),[5],-0.564
same,glycan array binding signal (z-score),GalNAc(b1-3)GalNAc,-0.787
same,glycan array binding signal (z-score),GalNAc(b1-4)Gal(b1-4)Glc,0.155
same,glycan array binding signal (z-score),GalNAc(b1-4)GlcNAc,-0.41
same,glycan array binding signal (z-score),[6],-0.75
same,glycan array binding signal (z-score),GalNAc(b1-6)GalNAc,-0.79
same,glycan array binding signal (z-score),Glc(a1-4)Glc,-0.67
same,glycan array binding signal (z-score),[7],-0.487
same,glycan array binding signal (z-score),Glc(a1-6)Glc(a1-6)Glc,-0.216
same,glycan array binding signal (z-score),[8],-0.668
same,glycan array binding signal (z-score),Glc(b1-4)Glc,-0.729
same,glycan array binding signal (z-score),Glc(b1-6)Glc,-0.467
same,glycan array binding signal (z-score),GlcA(b1-3)Gal,-0.402
same,glycan array binding signal (z-score),GlcA(b1-3)GlcNAc,0.43
same,glycan array binding signal (z-score),GlcA(b1-6)Gal,0.102
same,glycan array binding signal (z-score),[9],-0.366
same,glycan array binding signal (z-score),[10],-0.689
same,glycan array binding signal (z-score),[11],0.62
same,glycan array binding signal (z-score),[12],-0.633
same,glycan array binding signal (z-score),[13],-0.781
same,glycan array binding signal (z-score),[14],3.21
same,glycan array binding signal (z-score),[15],-0.078
same,glycan array binding signal (z-score),[16],-0.064
same,glycan array binding signal (z-score),[17],-0.786
same,glycan array binding signal (z-score),[18],-0.68
same,glycan array binding signal (z-score),[19],0.22
same,glycan array binding signal (z-score),[20],0.498

# Two successive records from above, for reference:
binder,measurement,setting,value
B1,glycan array binding signal (z-score),GlcA(b1-3)GlcNAc,0.43
same,glycan array binding signal (z-score),GlcA(b1-6)Gal,0.102
